These are yes or no findings as the source states them, for the method shown. For some of these results: Binding calls can cover weak binding; strength is not graded here.
T1: full length human TCTP (Translationally Controlled Tumour Protein) (human) (UniProt P13693)
T1 sequence: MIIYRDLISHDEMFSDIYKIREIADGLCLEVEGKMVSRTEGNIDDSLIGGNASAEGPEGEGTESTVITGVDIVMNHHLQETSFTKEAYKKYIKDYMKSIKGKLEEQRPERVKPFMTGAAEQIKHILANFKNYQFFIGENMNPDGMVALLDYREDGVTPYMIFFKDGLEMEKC


Legend:
[1] = biological target: T1, full length human TCTP (Translationally Controlled Tumour Protein) (human); test: NMR titration
[2] = biological target: human Mcl-1 ΔPESTΔTM (human); test: NMR titration
[3] = biological target: human Mcl-1 ΔPESTΔTM (human); test: NMR titration; remark: listed apart in the source
[4] = biological target: human Mcl-1 ΔPESTΔTM (human); test: condition: only in an equimolar mix with TCTPBH3D16I and MuleBH3

Row | binding [1] | binding [2] | binding [3] | binding [4] | Molecule
1 | binds weakly |  |  |  | human Mcl-1 ΔPESTΔTM (domain or fragment)
2 |  | binds |  |  | DEMFSIIYKIREIADGLCLEVE (peptide, UniProt P13693 11-32) [TCTP BH3-like peptide D16I mutant (TCTP_(BH3D16I))]
3 |  | binds weakly | binds weakly | no binding | DEMFSDIYKIREIADGLCLEVE (peptide, UniProt P13693 11-32) [TCTP BH3-like peptide (TCTPBH3)]
4 |  | binds | binds weakly |  | full length human TCTP (Translationally Controlled Tumour Protein) (protein, UniProt P13693 1-172) MIIYRDLISHDEMFSDIYKIREIADGLCLEVEGKMVSRTEGNIDDSLIGGNASAEGPEGEGTESTVITGVDIVMNHHLQETSFTKEAYKKYIKDYMKSIKGKLEEQRPERVKPFMTGAAEQIKHILANFKNYQFFIGENMNPDGMVALLDYREDGVTPYMIFFKDGLEMEKC

Reference: paper doi:10.1101/2022.11.05.515280
